Measured values: patent US20190202877A1, “DERMASEPTIN-TYPE AND PISCIDIN-TYPE ANTIMICROBIAL PEPTIDES” (THE REGENTS OF THE UNIVERSITY OF COLORADO, a body corporate, priority 2014, published 2019)
At least one peptide structure holds a part that was inferred or is arguable (an end, a ring closure or a residue). Some entries share one result that the patent states for a list of compounds.

Key:
[1] = Analytical RP-HPLC retention time as measure of overall peptide hydrophobicity; format: physicochemical; conditions: for Hydrophobicity tR: retention time in RP-HPLC at pH 2 and room temperature; for decrease in overall hydrophobicity (RP-HPLC retention time) from native peptide: vs native D-Piscidin 1 or D-Dermaseptin S4
Acinetobacter baumannii = format: cell-based; conditions: for Fold improvement in antimicrobial activity (geometric mean data), A. baumannii: compared to native D-piscidin 1 or D-dermaseptin S4; for Fold change in antimicrobial activity, A. baumannii: compared to native peptide, Table 6
[2] = Helical structure by circular dichroism spectroscopy; format: physicochemical; conditions: for % Helix 50% TFE / % Helix Benign: relative to parent peptide in 50% TFE; for [θ]222 50% TFE / [θ]222 Benign: 222 nm, 5° C.; for [θ]222 50% TFE: benign buffer containing 50% TFE; for [θ]222 Benign: benign conditions (100 mM KCl, 50 mM NaH2PO4/Na2HPO4, pH 7.0); for % Helix Benign: benign buffer
Pseudomonas aeruginosa = experiment: MIC, standard microtiter dilution method in Mueller Hinton medium, P. aeruginosa strains; format: cell-based; conditions: for Fold improvement in antimicrobial activity (geometric mean data), P. aeruginosa: compared to native D-piscidin 1 or D-dermaseptin S4; for Fold change in antimicrobial activity, P. aeruginosa: compared to native peptide, Table 6
[3] = Peptide self-association by RP-HPLC temperature profiling; format: physicochemical; conditions: RP-HPLC temperature profiling pH 2, 5° C. to 80° C.; maximal retention time difference vs control peptide C
[4] = test system: methicillin sensitive Staph. aureus (MSSA); format: cell-based, Staphylococcus aureus; conditions: compared to native D-piscidin 1 or D-dermaseptin S4
Procedure: (§1) MICs were determined by a standard microtiter dilution method in Mueller Hinton (MH) medium. Briefly, cells were grown overnight at 37° C. in MH broth and were diluted in the same medium. Serial dilutions of the peptides were added to the microtiter plates in a volume of 50 μl, followed by the addition of 50 μl of bacteria to give a final inoculum of 5×10^5 colony-forming units (CFU)/mL. The plates were incubated at 37° C. for 24 h, and the MICs were determined as the lowest peptide concentration that inhibited growth.
(§2) Various peptides of the invention were tested for antimicrobial activity as described in Example 1. The antimicrobial activity of these peptides was similarly tested against Gram-positive organisms, including Staphylococcus aureus.

[5] = test system: methicillin resistant Staph. aureus (MRSA); format: cell-based, Staphylococcus aureus; conditions: compared to native D-piscidin 1 or D-dermaseptin S4
Procedure: as §1, §2

Compound	Hydrophobicity tR [1] [min]	decrease in overall hydrophobicity (RP-HPLC retention time) from native peptide [1]	Fold improvement in antimicrobial activity (geometric mean data), A. baumannii (Acinetobacter baumannii) [fold]	Fold change in antimicrobial activity, A. baumannii (Acinetobacter baumannii) [fold]	% Helix 50% TFE [2] [%]	[θ]222 50% TFE [2]	[θ]222 Benign [2]	% Helix Benign [2] [%]	Fold improvement in antimicrobial activity (geometric mean data), P. aeruginosa (Pseudomonas aeruginosa) [fold]	Fold change in antimicrobial activity, P. aeruginosa (Pseudomonas aeruginosa) [fold]	PA self-association parameter [3] [min]	Fold loss in antimicrobial activity (geometric mean data), MSSA [4] [fold]	Fold loss in antimicrobial activity (geometric mean data), MRSA [5] [fold]	decrease in helicity in 50% TFE compared to native sequence [2] [%]
CC[C@@H](C)[C@@H](NC(=O)CNC(=O)[C@@H](CCCNC(=N)N)NC(=O)[C@@H](Cc1ccccc1)NC(=O)[C@H](NC(=O)[C@@H](Cc1c[nH]cn1)NC(=O)[C@@H](Cc1c[nH]cn1)NC(=O)[C@@H](Cc1ccccc1)NC(=O)[C@H](N)Cc1ccccc1)[C@H](C)CC)C(=O)N[C@@H](C(=O)N[C@H](Cc1c[nH]cn1)C(=O)N[C@H](CCCCN)C(=O)NCC(=O)N[C@H](CCCCN)C(=O)N[C@@H](C(=O)N[C@@H](C(=O)N[C@H](Cc1c[nH]cn1)C(=O)N[C@H](CCCNC(=N)N)C(=O)N[C@H](CC(C)C)C(=O)N[C@@H](C(=O)N[C@@H](C(=O)NCC(N)=O)[C@H](C)O)C(C)C)[C@H](C)CC)[C@H](C)O)C(C)C [D-Piscidin 1 V12K]	65.9	more than 10 min	1.0	1.0	44	16,000 deg cm^2/dmol	−200 deg cm^2/dmol	<1	1.1	1.1	0.69	67	41	
CSCC[C@@H](NC(=O)[C@@H](Cc1c[nH]c2ccccc12)NC(=O)[C@@H](CC(C)C)NC(=O)[C@@H](C)N)C(=O)N[C@@H](C(=O)N[C@H](CC(C)C)C(=O)N[C@H](CC(C)C)C(=O)N[C@H](CCCCN)C(=O)N[C@H](CCCCN)C(=O)N[C@@H](C(=O)N[C@H](CC(C)C)C(=O)N[C@H](CCCCN)C(=O)N[C@H](C)C(=O)N[C@H](C)C(=O)N[C@H](C)C(=O)N[C@H](CCCCN)C(=O)N[C@H](C)C(=O)N[C@H](CC(C)C)C(=O)N[C@H](CC(N)=O)C(=O)N[C@H](C)C(=O)N[C@@H](C(=O)N[C@H](CC(C)C)C(=O)N[C@@H](C(=O)NCC(=O)N[C@H](C)C(=O)N[C@H](CC(N)=O)C(=O)N[C@H](C)C(N)=O)C(C)C)C(C)C)C(C)C)[C@H](C)O [D-Dermaseptin S4, reference compound]	124.4		1.0	1.0	100	38,400 deg cm^2/dmol	28,900 deg cm^2/dmol	75	1.0	1.0	12.61	1.0	1.0	
CC[C@@H](C)[C@@H](NC(=O)CNC(=O)[C@@H](CCCNC(=N)N)NC(=O)[C@@H](Cc1ccccc1)NC(=O)[C@H](NC(=O)[C@@H](Cc1c[nH]cn1)NC(=O)[C@@H](Cc1c[nH]cn1)NC(=O)[C@@H](Cc1ccccc1)NC(=O)[C@H](N)Cc1ccccc1)[C@H](C)CC)C(=O)N[C@@H](C(=O)N[C@H](Cc1c[nH]cn1)C(=O)N[C@@H](C(=O)NCC(=O)N[C@H](CCCCN)C(=O)N[C@@H](C(=O)N[C@@H](C(=O)N[C@H](Cc1c[nH]cn1)C(=O)N[C@H](CCCNC(=N)N)C(=O)N[C@H](CC(C)C)C(=O)N[C@@H](C(=O)N[C@@H](C(=O)NCC(N)=O)[C@H](C)O)C(C)C)[C@H](C)CC)[C@H](C)O)C(C)C)C(C)C [D-Piscidin 1, reference compound]	76.4		1.0	1.0	100	36,200 deg cm^2/dmol	100 deg cm^2/dmol	<1	1.0	1.0	0.78	1.0	1.0	
CC[C@@H](C)[C@@H](NC(=O)CNC(=O)[C@@H](CCCNC(=N)N)NC(=O)[C@@H](Cc1ccccc1)NC(=O)[C@H](NC(=O)[C@@H](Cc1c[nH]cn1)NC(=O)[C@@H](Cc1c[nH]cn1)NC(=O)[C@@H](Cc1ccccc1)NC(=O)[C@H](N)Cc1ccccc1)[C@H](C)CC)C(=O)N[C@@H](C(=O)N[C@H](Cc1c[nH]cn1)C(=O)N[C@@H](C(=O)N[C@H](CCCCN)C(=O)N[C@H](CCCCN)C(=O)N[C@@H](C(=O)N[C@@H](C(=O)N[C@H](Cc1c[nH]cn1)C(=O)N[C@H](CCCNC(=N)N)C(=O)N[C@H](CC(C)C)C(=O)N[C@@H](C(=O)N[C@@H](C(=O)NCC(N)=O)[C@H](C)O)C(C)C)[C@H](C)CC)[C@H](C)O)C(C)C)C(C)C [D-Piscidin 1 G13K]	74.6		0.5		94	34,050 deg cm^2/dmol	−250 deg cm^2/dmol	<1	0.9		0.95			6
CC[C@@H](C)[C@@H](NC(=O)[C@@H](Cc1c[nH]cn1)NC(=O)[C@@H](Cc1c[nH]cn1)NC(=O)[C@@H](Cc1ccccc1)NC(=O)[C@H](N)Cc1ccccc1)C(=O)N[C@H](Cc1ccccc1)C(=O)N[C@H](CCCNC(=N)N)C(=O)NCC(=O)N[C@H](CCCCN)C(=O)N[C@@H](C(=O)N[C@H](Cc1c[nH]cn1)C(=O)N[C@@H](C(=O)NCC(=O)N[C@H](CCCCN)C(=O)N[C@@H](C(=O)N[C@@H](C(=O)N[C@H](Cc1c[nH]cn1)C(=O)N[C@H](CCCNC(=N)N)C(=O)N[C@H](CC(C)C)C(=O)N[C@@H](C(=O)N[C@@H](C(=O)NCC(N)=O)[C@H](C)O)C(C)C)[C@H](C)CC)[C@H](C)O)C(C)C)C(C)C [D-Piscidin 1 I9K]	65.4	more than 10 min	0.9	1.1		20,950 deg cm^2/dmol	−300 deg cm^2/dmol	<1	0.6	1.6	1.29	80	35	42
